# At least one compound was matched to its structure with a doubt left.
# Tested on: Purified phosphotyrosyl protein phosphatase from human placental membranes
# Assay: PNPP phosphatase kinetics (Lineweaver-Burk) of purified enzyme
# Format: biochemical
structure (smiles),measurement,setting,value
"O=[N+]([O-])c1ccc(OP(=O)(O)O)cc1 [PNPP, p-Nitrophenylphosphate]",Kcat (PNPP),pH 4,1.02 μmol/min/mg protein
same,Km,pH 4,770 µM
same,Kcat (PNPP),pH 6,0.39 μmol/min/mg protein
same,Km,pH 6,420 µM

# From US4710469A, “Novel phosphotyrosyl protein phosphatase” (Merck & Co., Inc., priority 1986, dated 1987)
